No constants are given. Whether binding was seen depends on the method and setting. In cells and extracts the contact can be indirect. Some entries that bind do so weakly or less than the wild type.
Target: T1, Id1 (endogenous, MDA-MB435S and A375P cells) (human (endogenous in MDA-MB435S and A375P)) (UniProt P41134)
T1 sequence: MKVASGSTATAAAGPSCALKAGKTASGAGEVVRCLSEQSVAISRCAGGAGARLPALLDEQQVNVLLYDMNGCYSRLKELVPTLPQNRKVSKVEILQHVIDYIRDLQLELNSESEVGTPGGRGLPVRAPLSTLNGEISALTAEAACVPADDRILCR
Assay: co-IP; extracts of MDA-MB435S and A375P cells immunoprecipitated with anti-Id1 antibodies or control IgGs, Western blot with anti-Id1 and anti-E2A antibodies

binding: binds
B1: E47 (endogenous, MDA-MB435S and A375P cells) (protein, UniProt P15923-2 1-651)
chain: MNQPQRMAPVGTDKELSDLLDFSMMFPLPVTNGKGRPASLAGAQFGGSGLEDRPSSGSWGSGDQSSSSFDPSRTFSEGTHFTESHSSLSSSTFLGPGLGGKSGERGAYASFGRDAGVGGLTQAGFLSGELALNSPGPLSPSGMKGTSQYYPSYSGSSRRRAADGSLDTQPKKVRKVPPGLPSSVYPPSSGEDYGRDATAYPSAKTPSSTYPAPFYVADGSLHPSAELWSPPGQAGFGPMLGGGSSPLPLPPGSGPVGSSGSSSTFGGLHQHERMGYQLHGAEVNGGLPSASSFSSAPGATYGGVSSHTPPVSGADSLLGSRGTTAGSSGDALGKALASIYSPDHSSNNFSSSPSTPVGSPQGLAGTSQWPRAGAPGALSPSYDGGLHGLQSKIEDHLDEAIHVLRSHAVGTAGDMHTLLPGHGALASGFTGPMSLGGRHAGLVGGSHPEDGLAGSTSLMHNHAALPSQPGTLPDLSRPPDSYSGLGRAGATAAASEIKREEKEDEENTSAADHSEEEKKELKAPRARTSSTDEVLSLEEKDLRDRERRMANNARERVRVRDINEAFRELGRMCQMHLKSDKAQTKLLILQQAVQVILGLEQQVRERNLNPKAACLKRREEEKVSGVVGDPQMVLSAPHPGLSEAHNPAGHM
